This is one part of the list.
Tests used:
Assay in all cases: log2 fold change, soluble protein after heating vs DMSO (PISA); higher = thermal stabilisation; K562 cells, 10 uM, 30 min; active = over 0.2 and 3.5 SD of the protein, either way, in both replicates (recomputed)
[1] = compound: Cc1ccc(NC(=O)c2ccc(CN3CC[C@H](N(C)C)C3)c(C(F)(F)F)c2)cc1Nc1nccc(-c2cncnc2)n1 [bafetinib]
How it was run: (§1)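 K562 cells at 2×10^6 cells/mL were exposed to 10 μM compound for 30 min, then aliquots were heated for 3 min across 48°C-58°C, pooled, and extracted in PBS containing 0.5% NP-40 at 4°C. The supernatant after 21,000xg for 90 min was taken as soluble protein and measured by TMTpro 16plex LC-MS/MS with channel sums equalised. Thermal stability is reported relative to control samples, with values from duplicates. Fold changes are given on a log2 scale.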

Chains of the proteins cited; added tags and fusions are not shown. Lines headed by an entry give the natural chain unless they say otherwise; changes in a name come on top.
UniProt O43242, whole entry, looked up: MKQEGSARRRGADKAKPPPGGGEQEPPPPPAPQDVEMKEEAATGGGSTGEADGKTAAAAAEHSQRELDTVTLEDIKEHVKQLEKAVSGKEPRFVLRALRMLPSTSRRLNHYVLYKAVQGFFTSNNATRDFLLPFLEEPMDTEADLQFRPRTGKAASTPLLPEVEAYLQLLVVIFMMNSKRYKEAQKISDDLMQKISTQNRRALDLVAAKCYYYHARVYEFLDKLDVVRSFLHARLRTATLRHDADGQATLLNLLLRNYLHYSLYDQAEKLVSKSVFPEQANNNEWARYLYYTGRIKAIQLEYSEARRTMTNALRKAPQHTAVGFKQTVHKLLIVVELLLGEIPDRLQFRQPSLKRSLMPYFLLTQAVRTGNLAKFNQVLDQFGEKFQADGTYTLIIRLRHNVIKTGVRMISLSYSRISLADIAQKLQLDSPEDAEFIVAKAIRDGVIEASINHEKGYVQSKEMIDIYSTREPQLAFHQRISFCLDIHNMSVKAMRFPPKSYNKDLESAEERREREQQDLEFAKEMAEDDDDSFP
UniProt P25789: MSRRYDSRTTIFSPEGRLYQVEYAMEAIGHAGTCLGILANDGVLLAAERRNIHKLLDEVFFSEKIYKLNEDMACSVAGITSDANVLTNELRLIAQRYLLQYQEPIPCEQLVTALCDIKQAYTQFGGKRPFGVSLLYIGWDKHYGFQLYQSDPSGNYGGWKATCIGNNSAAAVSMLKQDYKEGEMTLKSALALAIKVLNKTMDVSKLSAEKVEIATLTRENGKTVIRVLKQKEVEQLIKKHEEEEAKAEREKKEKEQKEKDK
UniProt Q99436: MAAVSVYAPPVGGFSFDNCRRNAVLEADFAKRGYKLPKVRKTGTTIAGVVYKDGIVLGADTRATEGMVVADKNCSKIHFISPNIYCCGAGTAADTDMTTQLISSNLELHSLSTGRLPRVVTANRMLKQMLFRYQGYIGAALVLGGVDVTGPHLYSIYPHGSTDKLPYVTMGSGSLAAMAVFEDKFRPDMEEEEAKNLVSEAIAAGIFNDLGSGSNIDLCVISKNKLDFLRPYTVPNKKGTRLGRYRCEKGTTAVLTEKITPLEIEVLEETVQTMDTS
UniProt Q9BRQ0: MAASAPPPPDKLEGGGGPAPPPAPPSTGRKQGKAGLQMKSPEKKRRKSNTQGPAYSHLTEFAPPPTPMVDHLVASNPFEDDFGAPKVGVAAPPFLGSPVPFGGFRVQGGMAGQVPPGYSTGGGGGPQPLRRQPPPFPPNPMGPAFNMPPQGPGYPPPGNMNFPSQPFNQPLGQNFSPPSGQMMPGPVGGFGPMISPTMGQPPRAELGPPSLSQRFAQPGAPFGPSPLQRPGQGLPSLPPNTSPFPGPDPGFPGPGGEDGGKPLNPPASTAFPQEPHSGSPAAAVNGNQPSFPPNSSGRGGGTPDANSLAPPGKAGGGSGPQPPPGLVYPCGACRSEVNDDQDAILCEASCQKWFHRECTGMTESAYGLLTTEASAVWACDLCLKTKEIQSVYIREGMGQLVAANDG
UniProt Q15032: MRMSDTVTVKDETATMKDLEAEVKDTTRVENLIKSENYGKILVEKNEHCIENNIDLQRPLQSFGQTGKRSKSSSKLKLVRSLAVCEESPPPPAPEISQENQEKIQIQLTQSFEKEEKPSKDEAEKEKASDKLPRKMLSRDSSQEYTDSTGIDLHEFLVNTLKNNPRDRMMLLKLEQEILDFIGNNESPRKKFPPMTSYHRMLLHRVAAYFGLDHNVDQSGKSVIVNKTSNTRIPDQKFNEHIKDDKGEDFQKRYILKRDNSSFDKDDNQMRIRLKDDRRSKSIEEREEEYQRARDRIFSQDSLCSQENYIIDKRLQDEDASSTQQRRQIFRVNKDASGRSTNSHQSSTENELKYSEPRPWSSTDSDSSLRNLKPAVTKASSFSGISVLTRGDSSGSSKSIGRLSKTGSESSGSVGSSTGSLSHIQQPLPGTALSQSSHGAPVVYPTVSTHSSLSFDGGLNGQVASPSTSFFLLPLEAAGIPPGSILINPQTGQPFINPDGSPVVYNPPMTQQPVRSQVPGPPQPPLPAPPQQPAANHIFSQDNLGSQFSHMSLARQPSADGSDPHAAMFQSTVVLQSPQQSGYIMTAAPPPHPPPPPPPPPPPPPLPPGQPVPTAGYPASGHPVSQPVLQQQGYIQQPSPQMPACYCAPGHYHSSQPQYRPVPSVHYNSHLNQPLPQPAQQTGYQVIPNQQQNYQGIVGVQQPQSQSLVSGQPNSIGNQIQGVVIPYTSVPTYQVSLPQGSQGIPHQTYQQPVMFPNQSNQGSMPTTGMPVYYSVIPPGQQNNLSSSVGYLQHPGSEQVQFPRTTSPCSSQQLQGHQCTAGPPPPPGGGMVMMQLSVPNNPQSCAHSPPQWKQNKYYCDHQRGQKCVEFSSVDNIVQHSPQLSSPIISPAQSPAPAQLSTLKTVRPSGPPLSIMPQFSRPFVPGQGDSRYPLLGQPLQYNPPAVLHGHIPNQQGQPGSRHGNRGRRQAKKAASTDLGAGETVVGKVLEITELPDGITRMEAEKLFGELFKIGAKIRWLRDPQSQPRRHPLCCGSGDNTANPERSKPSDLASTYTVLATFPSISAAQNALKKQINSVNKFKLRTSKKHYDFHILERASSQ
UniProt Q13332: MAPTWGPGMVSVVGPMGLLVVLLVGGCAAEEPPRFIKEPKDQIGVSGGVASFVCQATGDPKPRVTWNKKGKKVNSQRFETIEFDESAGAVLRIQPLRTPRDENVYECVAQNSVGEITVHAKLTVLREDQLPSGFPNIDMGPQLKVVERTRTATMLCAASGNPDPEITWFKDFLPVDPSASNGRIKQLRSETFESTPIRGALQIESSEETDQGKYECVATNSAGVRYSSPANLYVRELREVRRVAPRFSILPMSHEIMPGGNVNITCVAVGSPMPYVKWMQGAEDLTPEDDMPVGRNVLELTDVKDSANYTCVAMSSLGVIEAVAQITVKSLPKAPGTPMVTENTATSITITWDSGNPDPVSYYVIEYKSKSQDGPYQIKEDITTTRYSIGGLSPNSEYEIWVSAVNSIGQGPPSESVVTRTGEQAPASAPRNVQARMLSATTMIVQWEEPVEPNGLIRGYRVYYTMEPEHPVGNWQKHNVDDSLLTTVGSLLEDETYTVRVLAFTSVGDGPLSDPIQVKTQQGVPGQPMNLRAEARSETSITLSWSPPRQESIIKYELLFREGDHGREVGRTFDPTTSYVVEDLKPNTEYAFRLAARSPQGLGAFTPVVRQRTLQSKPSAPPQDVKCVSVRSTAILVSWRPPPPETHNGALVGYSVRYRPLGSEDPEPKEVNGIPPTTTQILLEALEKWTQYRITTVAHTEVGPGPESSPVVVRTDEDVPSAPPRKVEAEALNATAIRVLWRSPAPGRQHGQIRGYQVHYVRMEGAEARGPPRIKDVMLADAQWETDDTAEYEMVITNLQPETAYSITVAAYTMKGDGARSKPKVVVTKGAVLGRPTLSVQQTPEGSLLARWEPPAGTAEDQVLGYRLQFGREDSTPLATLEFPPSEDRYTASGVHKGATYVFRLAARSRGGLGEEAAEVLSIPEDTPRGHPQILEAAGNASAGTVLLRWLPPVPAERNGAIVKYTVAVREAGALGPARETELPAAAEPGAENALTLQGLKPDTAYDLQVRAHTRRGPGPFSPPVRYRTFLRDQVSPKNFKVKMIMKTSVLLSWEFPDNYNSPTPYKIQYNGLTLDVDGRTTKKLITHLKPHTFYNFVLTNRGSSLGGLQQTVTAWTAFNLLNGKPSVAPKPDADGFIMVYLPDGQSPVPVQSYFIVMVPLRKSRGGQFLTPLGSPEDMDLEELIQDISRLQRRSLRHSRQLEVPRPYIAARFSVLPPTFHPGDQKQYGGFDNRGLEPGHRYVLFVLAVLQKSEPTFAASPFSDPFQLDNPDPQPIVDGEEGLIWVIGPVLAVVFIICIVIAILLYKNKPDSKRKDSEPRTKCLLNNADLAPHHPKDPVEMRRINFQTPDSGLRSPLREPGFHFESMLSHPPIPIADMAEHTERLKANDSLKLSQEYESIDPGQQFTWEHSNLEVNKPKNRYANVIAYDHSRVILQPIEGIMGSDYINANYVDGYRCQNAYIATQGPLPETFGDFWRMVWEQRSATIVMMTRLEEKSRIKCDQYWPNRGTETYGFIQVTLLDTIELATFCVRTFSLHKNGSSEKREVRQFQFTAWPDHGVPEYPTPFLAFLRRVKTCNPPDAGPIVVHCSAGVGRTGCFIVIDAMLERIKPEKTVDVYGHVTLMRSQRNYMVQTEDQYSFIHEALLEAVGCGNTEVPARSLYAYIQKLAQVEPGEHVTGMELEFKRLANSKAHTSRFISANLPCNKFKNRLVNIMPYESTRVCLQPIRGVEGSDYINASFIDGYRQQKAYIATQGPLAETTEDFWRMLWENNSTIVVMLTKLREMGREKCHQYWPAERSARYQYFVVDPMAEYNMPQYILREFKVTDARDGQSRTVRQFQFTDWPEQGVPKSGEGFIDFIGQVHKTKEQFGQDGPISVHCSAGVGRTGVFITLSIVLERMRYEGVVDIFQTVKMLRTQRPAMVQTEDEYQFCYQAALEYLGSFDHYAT
UniProt Q13308: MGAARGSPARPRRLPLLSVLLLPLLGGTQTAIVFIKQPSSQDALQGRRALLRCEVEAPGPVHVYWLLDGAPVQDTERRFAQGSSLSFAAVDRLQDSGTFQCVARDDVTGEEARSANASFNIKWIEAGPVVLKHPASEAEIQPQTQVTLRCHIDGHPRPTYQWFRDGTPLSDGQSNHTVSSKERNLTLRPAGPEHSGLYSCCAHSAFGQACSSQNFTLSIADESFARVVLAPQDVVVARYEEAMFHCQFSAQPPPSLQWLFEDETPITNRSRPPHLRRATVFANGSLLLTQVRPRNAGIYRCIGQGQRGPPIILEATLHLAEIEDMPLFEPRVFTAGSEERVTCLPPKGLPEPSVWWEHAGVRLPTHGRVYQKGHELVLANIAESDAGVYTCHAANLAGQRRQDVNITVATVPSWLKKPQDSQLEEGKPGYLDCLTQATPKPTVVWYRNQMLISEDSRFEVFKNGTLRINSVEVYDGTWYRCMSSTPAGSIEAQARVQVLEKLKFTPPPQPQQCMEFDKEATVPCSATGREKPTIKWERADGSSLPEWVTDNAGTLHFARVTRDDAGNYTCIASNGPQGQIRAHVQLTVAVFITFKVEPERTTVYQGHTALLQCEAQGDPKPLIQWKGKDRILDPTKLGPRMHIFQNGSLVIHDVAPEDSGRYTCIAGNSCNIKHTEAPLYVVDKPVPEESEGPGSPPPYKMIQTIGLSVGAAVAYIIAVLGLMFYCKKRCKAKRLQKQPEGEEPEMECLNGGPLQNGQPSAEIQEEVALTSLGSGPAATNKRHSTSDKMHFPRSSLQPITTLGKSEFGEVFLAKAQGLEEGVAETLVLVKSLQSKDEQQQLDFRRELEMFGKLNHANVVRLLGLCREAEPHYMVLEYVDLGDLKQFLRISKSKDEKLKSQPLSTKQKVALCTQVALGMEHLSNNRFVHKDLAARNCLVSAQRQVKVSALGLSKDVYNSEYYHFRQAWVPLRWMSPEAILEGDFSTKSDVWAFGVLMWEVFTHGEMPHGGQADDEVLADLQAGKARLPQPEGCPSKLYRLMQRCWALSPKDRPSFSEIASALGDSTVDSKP
UniProt P15151: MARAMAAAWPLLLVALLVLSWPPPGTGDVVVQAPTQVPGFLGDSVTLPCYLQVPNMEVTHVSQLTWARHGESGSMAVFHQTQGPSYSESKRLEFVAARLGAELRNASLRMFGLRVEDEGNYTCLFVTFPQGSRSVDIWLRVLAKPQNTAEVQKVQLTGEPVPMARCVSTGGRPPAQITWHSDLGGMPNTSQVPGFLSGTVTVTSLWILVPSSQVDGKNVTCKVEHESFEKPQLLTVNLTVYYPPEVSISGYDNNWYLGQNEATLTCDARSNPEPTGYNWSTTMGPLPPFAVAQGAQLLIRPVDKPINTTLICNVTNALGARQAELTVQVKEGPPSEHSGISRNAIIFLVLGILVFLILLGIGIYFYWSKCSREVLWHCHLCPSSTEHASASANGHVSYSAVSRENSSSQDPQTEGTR
UniProt P32322: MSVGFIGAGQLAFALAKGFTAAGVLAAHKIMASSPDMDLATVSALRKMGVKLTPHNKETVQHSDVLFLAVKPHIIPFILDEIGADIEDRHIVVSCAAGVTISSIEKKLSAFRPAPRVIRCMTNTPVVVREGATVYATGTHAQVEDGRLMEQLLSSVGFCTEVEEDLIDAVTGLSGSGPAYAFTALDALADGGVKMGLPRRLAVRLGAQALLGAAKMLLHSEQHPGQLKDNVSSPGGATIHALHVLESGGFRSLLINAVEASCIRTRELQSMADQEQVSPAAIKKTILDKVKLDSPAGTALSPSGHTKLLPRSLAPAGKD
UniProt Q06323: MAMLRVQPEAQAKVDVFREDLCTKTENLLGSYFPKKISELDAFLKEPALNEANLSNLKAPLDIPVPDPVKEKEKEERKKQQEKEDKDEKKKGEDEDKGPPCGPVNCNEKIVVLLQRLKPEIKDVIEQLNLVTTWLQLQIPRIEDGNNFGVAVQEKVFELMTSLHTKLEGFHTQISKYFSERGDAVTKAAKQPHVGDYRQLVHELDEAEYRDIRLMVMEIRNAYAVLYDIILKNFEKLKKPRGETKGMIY

[2] = compound: Cc1cccc(CC(=O)N2CCc3c2ccc(-c2cn(C)c4ncnc(N)c24)c3F)n1
How it was run: as §1

[3] = compound: Cc1cn(-c2cc(NC(=O)c3ccc(C)c(Nc4nccc(-c5cccnc5)n4)c3)cc(C(F)(F)F)c2)cn1 [nilotinib]
How it was run: as §1

[4] = compound: Cc1nc(Nc2n[nH]c3c2CN(C(=O)N[C@H](CN(C)C)c2ccccc2)C3(C)C)c2sccc2n1
How it was run: as §1

[5] = compound: Cc1nc(Nc2ncc(C(=O)Nc3c(C)cccc3Cl)s2)cc(N2CCN(CCO)CC2)n1 [dasatinib]
How it was run: as §1

[6] = compound: Cc1ncc(-c2ccnc(Nc3ccc(S(C)(=O)=O)cc3)n2)n1C(C)C
How it was run: as §1

[7] = compound: Cn1cc(-c2ccc3c(c2)CCN3C(=O)Cc2cccc(C(F)(F)F)c2)c2c(N)ncnc21
How it was run: as §1

[8] = compound: Cn1cc(-c2ccc3nnc(C(F)(F)c4ccc5ncccc5c4)n3n2)cn1
How it was run: as §1

[9] = compound: Cn1cncc1[C@@](N)(c1ccc(Cl)cc1)c1ccc2c(c1)c(-c1cccc(Cl)c1)cc(=O)n2C [tipifarnib]
How it was run: as §1

[10] = compound: FC(F)(F)c1ccc(/C=C/c2nc(COc3ccc(CCCCn4ccnn4)cc3)co2)cc1 [mubritinib]
How it was run: as §1

Measured: log2 fold change

PSMD3 (UniProt O43242)
inactive: [1] 0.129 | [2] 0.032 | [3] 0.008 | [4] 0.089 | [5] 0.004 | [6] -0.012 | [7] -0.064 | [8] -0.018 | [9] 0.025 | [10] -0.019

PSMA4 (UniProt P25789)
inactive: [1] 0.149 | [2] -0.005 | [3] 0.005 | [4] 0.089 | [5] 0.056 | [6] 0.011 | [7] -0.068 | [8] -0.014 | [9] 0.046 | [10] -0.021

PSMD8 (UniProt P48556)
inactive: [1] 0.089 | [2] -0.013 | [3] 0.039 | [4] 0.054 | [5] 0.029 | [6] -0.031 | [7] -0.07 | [8] 0.009 | [9] 0.117 | [10] -0.032

PSMG4 isoform 2 (UniProt Q5JS54)
inactive: [1] -0.047 | [2] 0.161 | [3] 0.248 | [4] -0.189 | [5] 0.23 | [6] 0.137 | [7] -0.01 | [8] -0.012 | [9] -0.24 | [10] 0.04

PTPA (UniProt A6PVN8)
inactive: [1] -0.122 | [2] -0.084 | [3] -0.134 | [4] 0.008 | [5] 0.075 | [6] 0.013 | [7] -0.075 | [8] 0.05 | [9] 0.232 | [10] 0.114

QSOX2 (UniProt Q6ZRP7)
inactive: [1] -0.016 | [2] -0.009 | [3] -0.016 | [4] 0.023 | [5] -0.019 | [6] 0.013 | [7] 0.045 | [8] -0.012 | [9] 0.023 | [10] 0.025

Pulled one by one from the list above (2):
PSMD8 (UniProt P48556)
inactive: [1] 0.089 | [2] -0.013 | [3] 0.039 | [4] 0.054 | [5] 0.029 | [6] -0.031 | [7] -0.07 | [8] 0.009 | [9] 0.117 | [10] -0.032

PSMA4 (UniProt P25789)
inactive: [1] 0.149 | [2] -0.005 | [3] 0.005 | [4] 0.089 | [5] 0.056 | [6] 0.011 | [7] -0.068 | [8] -0.014 | [9] 0.046 | [10] -0.021

(further entries)

PRXL2A (UniProt Q9BRX8)
inactive: [1] -0.055 | [2] -0.166 | [5] 0.364 | [7] -0.049 | [9] -0.065 | [10] -0.005

PSMB7 (UniProt Q99436)
inactive: [1] 0.036 | [2] -0.003 | [3] 0.038 | [4] 0.041 | [5] 0.044 | [6] 0.013 | [7] -0.068 | [8] -0.009 | [9] 0.046 | [10] -0.008

PTBP3 isoform 4 (UniProt O95758)
inactive: [1] 0.062 | [2] 0.011 | [3] -0.061 | [4] -0.151 | [5] -0.076 | [6] -0.038 | [7] -0.016 | [8] -0.061 | [9] 0.008 | [10] -0.04

PYGO2 (UniProt Q9BRQ0)
inactive: [1] -0.033 | [2] -0.105 | [3] 0.046 | [4] -0.045 | [6] -0.057 | [8] 0.055 | [9] -0.043 | [10] -0.01

PXMP2 (UniProt Q9NR77)
inactive: [1] -0.056 | [2] 0.022 | [3] -0.002 | [4] 0.024 | [5] 0.017 | [6] -0.027 | [7] 0.047 | [8] 0.001 | [9] -0.021 | [10] 0.043

PSMC3IP (UniProt Q9P2W1)
inactive: [1] 0.284 | [2] -0.276 | [3] -0.202 | [4] -0.242 | [6] 0.299 | [7] 0.032 | [9] -0.041 | [10] -0.029

R3HDM1 isoform 2 (UniProt Q15032)
inactive: [1] -0.185 | [2] 0.058 | [3] -0.115 | [4] -0.151 | [5] -0.026 | [6] -0.094 | [8] -0.026 | [9] -0.094 | [10] -0.011

PSMF1 (UniProt Q92530)
inactive: [1] -0.059 | [2] 0.01 | [3] -0.009 | [4] -0.022 | [5] 0.012 | [6] -0.062 | [7] 0.064 | [8] -0.002 | [9] 0.027 | [10] 0.068

PTPN2 (UniProt P17706)
inactive: [1] 0.081 | [2] 0.066 | [5] -0.11 | [7] -0.009 | [8] 0.054 | [9] 0.11 | [10] 0.123

PTPRS (UniProt Q13332)
inactive: [1] -0.106 | [2] -0.232 | [3] 0.053 | [4] -0.153 | [5] 0.088 | [6] 0.076 | [8] -0.173

PSMD10 (UniProt O75832)
inactive: [1] 0.026 | [2] 0.029 | [3] -0.013 | [4] -0.019 | [5] -0.094 | [6] 0.029 | [7] -0.015 | [8] 0.01 | [9] -0.054 | [10] 0.047

PTPN1 (UniProt P18031)
inactive: [1] 0.169 | [2] 0.079 | [3] -0.146 | [4] -0.191 | [5] -0.104 | [6] 0.017 | [7] -0.087 | [8] -0.087 | [9] -0.059 | [10] -0.033

PUF60 (UniProt Q9UHX1)
active: [4] -0.703
inactive: [1] 0.077 | [2] -0.04 | [3] -0.022 | [5] -0.085 | [6] -0.001 | [7] 0.008 | [8] -0.046 | [9] -0.034 | [10] 0.024

PSMB2, A0A087WVV1
inactive: [1] 0.049 | [2] 0.065 | [3] -0.235 | [4] -0.039 | [5] 0.057 | [6] -0.121 | [8] 0.025 | [9] -0.106 | [10] 0.06

PTK7 isoform 6 (UniProt Q13308)
inactive: [1] -0.101 | [2] -0.107 | [3] -0.184 | [4] -0.007 | [5] 0 | [6] -0.048 | [7] -0.019 | [8] 0.003 | [9] 0.061 | [10] 0.02

PVR (UniProt P15151)
inactive: [1] 0.144 | [2] -0.078 | [5] 0.053 | [7] 0.044 | [9] -0.13 | [10] 0.074

PTPRA (UniProt P18433)
inactive: [1] 0.064 | [2] -0.094 | [3] -0.003 | [4] -0.071 | [5] -0.075 | [6] 0.02 | [7] 0.025 | [8] -0.042 | [9] -0.037 | [10] 0

PTS (UniProt Q03393)
inactive: [1] 0.062 | [2] 0.045 | [3] -0.124 | [4] -0.013 | [5] -0.003 | [6] -0.113 | [7] 0.092 | [9] 0.032 | [10] 0.05

PTTG1IP (UniProt P53801)
inactive: [1] -0.105 | [2] -0.053 | [3] -0.061 | [4] 0.054 | [5] -0.002 | [6] -0.099 | [7] 0.036 | [9] 0.036 | [10] -0.012

PSMB9 (UniProt P28065)
inactive: [1] -0.22 | [2] -0.122 | [7] 0.054 | [9] 0.03

PURB (UniProt Q96QR8)
inactive: [1] 0.123 | [2] 0.079 | [3] 0.01 | [4] 0.135 | [5] 0.355 | [6] 0.01 | [7] -0.261 | [8] -0.141 | [9] 0.221 | [10] -0.124

QSOX1 (UniProt O00391)
inactive: [1] 0.045 | [2] -0.068 | [3] -0.164 | [4] -0.358 | [5] 0.021 | [6] 0.033 | [7] 0.046 | [8] -0.096 | [10] -0.01

PYCR1 isoform 3 (UniProt P32322)
inactive: [1] 0.105 | [2] 0.036 | [3] 0.009 | [4] 0.022 | [6] -0.028 | [7] 0.058 | [8] 0.049 | [9] 0.014 | [10] 0.049

PSME1 (UniProt Q06323)
inactive: [1] -0.026 | [2] 0.042 | [3] -0.001 | [4] -0.001 | [5] -0.007 | [6] -0.024 | [7] 0.038 | [8] 0.028 | [9] 0.031 | [10] 0.039

Source: the supplement of paper PMC10849652
